The record followed here is patent US20150239933A1.

For assay [1], the target named is Porcine tubulin dimer (porcine). The assay can be described thus: SPR (Biacore T200), tubulin dimer amine-coupled to a CM5 chip, peptide as analyte at 625 nM to 20 µM.
The target is the same in assay [2]. Description: SPR, 60 sec injection over immobilised tubulin dimer (one of two injections; the other gave 0.4 RU).

No constants are given. Whether binding was seen depends on the method and setting.

On to RAKWNNTLKQIASK [Helix-B peptide], for which the binding result in assay [1] is on record as “no binding (tested: 20 µM)”; in assay [2] it was “no binding (tested: 10 uM)”.
